# Results from the supplement of paper PMC12819154, “High-throughput peptide-centric local stability assay extends protein–ligand identification to membrane proteins, tissues and bacteria” (Nature Structural & Molecular Biology, 2025).
# Chains of the proteins cited; added tags and fusions are not shown. Lines headed by an entry give the natural chain unless they say otherwise; changes in a name come on top.
# UniProt P55201: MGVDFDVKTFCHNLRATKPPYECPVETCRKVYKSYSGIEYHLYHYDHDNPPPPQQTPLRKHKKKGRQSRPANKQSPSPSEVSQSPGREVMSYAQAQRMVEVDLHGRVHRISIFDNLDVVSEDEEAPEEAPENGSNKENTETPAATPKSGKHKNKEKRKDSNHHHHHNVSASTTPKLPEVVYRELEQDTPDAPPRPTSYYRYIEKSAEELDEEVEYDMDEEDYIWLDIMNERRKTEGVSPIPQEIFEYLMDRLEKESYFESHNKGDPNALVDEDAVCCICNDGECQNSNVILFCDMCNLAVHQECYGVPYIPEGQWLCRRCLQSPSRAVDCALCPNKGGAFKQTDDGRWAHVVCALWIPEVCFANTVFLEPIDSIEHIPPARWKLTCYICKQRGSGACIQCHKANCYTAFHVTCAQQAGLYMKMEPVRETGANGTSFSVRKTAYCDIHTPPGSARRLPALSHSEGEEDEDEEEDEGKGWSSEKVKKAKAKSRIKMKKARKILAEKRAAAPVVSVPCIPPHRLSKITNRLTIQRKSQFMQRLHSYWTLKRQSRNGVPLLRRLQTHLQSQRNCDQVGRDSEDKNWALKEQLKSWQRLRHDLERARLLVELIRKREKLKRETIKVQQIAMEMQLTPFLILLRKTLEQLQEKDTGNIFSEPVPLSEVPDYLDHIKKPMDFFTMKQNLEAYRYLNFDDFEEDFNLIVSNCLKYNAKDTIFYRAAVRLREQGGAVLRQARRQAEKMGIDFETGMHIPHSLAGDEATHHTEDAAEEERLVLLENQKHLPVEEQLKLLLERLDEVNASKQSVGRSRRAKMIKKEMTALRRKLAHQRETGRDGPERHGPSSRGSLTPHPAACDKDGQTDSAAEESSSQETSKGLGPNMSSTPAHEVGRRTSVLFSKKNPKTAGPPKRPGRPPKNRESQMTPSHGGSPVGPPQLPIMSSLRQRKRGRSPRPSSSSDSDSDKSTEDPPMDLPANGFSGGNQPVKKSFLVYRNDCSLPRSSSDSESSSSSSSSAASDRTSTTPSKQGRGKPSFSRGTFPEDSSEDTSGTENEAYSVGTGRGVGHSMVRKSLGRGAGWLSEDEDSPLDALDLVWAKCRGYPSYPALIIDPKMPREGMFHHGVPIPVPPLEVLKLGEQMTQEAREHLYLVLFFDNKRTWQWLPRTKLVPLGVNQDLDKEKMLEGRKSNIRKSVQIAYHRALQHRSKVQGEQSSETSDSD
# UniProt P55199: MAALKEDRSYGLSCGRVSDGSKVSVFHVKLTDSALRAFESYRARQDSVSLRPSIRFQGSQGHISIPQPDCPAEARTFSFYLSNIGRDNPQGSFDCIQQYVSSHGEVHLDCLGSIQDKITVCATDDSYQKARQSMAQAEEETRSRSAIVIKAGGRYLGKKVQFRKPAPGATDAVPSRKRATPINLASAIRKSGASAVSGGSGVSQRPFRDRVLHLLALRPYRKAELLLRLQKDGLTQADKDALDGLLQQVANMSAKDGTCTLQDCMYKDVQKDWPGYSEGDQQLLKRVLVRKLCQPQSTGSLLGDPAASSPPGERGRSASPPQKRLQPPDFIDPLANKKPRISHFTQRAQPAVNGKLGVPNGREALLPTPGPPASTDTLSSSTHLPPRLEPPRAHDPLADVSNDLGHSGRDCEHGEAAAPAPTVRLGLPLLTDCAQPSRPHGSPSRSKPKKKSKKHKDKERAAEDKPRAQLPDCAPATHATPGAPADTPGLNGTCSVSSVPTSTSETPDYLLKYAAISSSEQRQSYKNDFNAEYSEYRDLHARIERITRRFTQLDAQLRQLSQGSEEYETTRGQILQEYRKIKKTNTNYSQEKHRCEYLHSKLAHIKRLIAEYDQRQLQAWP
# UniProt P57076: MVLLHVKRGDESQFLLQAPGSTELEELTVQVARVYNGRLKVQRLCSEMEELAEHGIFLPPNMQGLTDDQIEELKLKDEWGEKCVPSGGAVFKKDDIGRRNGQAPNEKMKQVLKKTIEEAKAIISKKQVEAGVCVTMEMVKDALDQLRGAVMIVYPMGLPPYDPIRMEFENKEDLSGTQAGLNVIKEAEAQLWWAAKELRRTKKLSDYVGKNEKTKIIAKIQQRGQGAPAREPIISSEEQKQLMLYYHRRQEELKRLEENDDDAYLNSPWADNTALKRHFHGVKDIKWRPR
# UniProt P60981: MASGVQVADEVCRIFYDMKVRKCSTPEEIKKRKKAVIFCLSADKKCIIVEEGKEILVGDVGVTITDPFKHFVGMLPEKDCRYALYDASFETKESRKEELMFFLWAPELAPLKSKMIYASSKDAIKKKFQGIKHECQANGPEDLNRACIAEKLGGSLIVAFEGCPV
# UniProt P61024, whole entry: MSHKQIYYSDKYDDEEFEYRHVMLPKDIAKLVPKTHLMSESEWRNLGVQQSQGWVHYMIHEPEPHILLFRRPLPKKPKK
# The list shows a part of the results. Small differences around the control level are noise.
# Compound: Cc1nc(Nc2ncc(C(=O)Nc3c(C)cccc3Cl)s2)cc(N2CCN(CCO)CC2)n1 [dasatinib]
# Assay: log2 fold change of tryptic peptide abundance, ligand vs vehicle (limited proteolysis) (log2 ratio); higher = more trypsin-susceptible (destabilized)
# Conditions: ligand concentration: 5 uM; sample: K562 cleared lysate
row,Target,log2 fold change
1,"UniProt P62913 (peptide sequence: KLCLNICVGESGDR, peptide start residue: 19)",0.114
2,"UniProt P61254 (peptide sequence: YVIYIERVQR, peptide start residue: 78)",-0.328
3,"UniProt P62888 (peptide sequence: SGKYVLGYKQTLK, peptide start residue: 24)",-0.59
4,"UniProt P55201 (peptide sequence: GLGPNMSSTPAHEVGRR, peptide start residue: 873)",0.446
5,"ELL (peptide sequence: TNTNYSQEK, peptide start residue: 584) (UniProt P55199)",0.163
6,"UniProt P57076 (peptide sequence: EPIISSEEQK, peptide start residue: 231)",-0.41
7,"DSTN (peptide sequence: VRKCSTPEEIK, peptide start residue: 20) (UniProt P60981)",0.343
8,"UniProt P61024 (peptide sequence: SHKQIYYSDKYDDEEFEYR, peptide start residue: 2)",0.638

# Records 2–3, quoted:
row,Target,log2 fold change
2,"UniProt P61254 (peptide sequence: YVIYIERVQR, peptide start residue: 78)",-0.328
3,"UniProt P62888 (peptide sequence: SGKYVLGYKQTLK, peptide start residue: 24)",-0.59
